# Data reported in PubChem BioAssay AID743295 (Broad Institute, 2014).
# Protein sequences, listed by entry. Tags and fused reporters are not part of them. Lines headed by an entry give the natural chain unless they say otherwise; changes in a name come on top.
# UniProt P55210: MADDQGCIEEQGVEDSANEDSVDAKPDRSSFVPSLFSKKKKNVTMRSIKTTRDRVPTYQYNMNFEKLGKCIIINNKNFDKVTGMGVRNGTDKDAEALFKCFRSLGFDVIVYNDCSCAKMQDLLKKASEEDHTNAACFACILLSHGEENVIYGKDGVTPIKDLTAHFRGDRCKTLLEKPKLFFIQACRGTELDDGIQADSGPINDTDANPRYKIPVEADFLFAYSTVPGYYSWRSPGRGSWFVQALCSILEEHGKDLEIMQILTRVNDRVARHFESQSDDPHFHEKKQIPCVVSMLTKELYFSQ
# These results got no clear call from the source, so the numbers are uncertain.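 The calls were made as follows: active = compounds lowering caspase 7 signal with dose, half-maximal concentration at most twice the top valid dose; inconclusive = flat fit with 30 to 70% inhibition, or poor fit; inactive = the rest.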
# Biological target: Caspase-7 (Homo sapiens) (UniProt P55210)
# Assay: human caspase-7 inhibitors, dose response, selectivity assay for caspase-6 inhibitor project, biochemical, DEVD-R110 fluorescence, cherry-pick (AID 743295)
# Settings: purified caspase-7, DEVD-R110 cleavage fluorescence; at 35 µM (top of the series)
compound,measurement,value
Nc1cc2nn(-c3ccccc3)nc2cc1Cl,"activity change, negative = inhibition",inconclusive: -3.54%
